Assay results: PMC10502413
These are yes or no findings as the source states them, for the method shown. Binding seen in cells or lysates may run through a third protein. Some results given as binding are weak or reduced against the parent protein; the word gives no strength.

Amino acid sequences for entries named in this document (tags omitted). A change or cut given only in a name is not applied to a line headed by its entry. Chains listed by the source or under a name are the forms on record and can include a tag or linker.
Flag-tagged NRF1 (1–296) (Q14494, form named): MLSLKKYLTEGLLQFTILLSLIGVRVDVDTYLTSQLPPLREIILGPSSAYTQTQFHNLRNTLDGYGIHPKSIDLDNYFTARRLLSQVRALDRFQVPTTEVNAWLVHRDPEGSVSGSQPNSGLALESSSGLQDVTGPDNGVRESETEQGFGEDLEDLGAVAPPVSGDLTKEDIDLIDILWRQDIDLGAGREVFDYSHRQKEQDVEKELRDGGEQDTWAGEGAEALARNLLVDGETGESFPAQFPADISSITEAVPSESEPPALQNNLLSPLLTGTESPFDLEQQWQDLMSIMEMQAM
UniProt Q5TDH0: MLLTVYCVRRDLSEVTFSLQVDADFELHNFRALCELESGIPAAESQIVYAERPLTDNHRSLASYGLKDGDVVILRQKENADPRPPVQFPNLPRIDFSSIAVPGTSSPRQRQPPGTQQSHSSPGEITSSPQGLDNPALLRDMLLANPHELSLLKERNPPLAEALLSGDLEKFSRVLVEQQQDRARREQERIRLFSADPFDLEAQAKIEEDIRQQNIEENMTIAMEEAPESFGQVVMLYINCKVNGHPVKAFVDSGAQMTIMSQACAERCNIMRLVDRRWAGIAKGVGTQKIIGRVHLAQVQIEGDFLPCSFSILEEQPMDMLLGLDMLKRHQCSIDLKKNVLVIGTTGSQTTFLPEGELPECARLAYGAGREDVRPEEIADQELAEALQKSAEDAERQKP
UniProt P54725: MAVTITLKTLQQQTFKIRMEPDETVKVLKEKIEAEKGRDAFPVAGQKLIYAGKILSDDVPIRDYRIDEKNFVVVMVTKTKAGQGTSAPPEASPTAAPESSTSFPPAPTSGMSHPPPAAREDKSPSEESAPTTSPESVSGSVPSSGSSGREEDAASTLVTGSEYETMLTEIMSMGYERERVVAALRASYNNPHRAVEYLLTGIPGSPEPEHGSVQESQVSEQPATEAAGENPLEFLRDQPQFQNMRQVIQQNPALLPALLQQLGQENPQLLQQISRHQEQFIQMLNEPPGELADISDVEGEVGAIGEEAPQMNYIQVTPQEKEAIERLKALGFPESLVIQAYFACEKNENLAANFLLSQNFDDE
UniProt P54727: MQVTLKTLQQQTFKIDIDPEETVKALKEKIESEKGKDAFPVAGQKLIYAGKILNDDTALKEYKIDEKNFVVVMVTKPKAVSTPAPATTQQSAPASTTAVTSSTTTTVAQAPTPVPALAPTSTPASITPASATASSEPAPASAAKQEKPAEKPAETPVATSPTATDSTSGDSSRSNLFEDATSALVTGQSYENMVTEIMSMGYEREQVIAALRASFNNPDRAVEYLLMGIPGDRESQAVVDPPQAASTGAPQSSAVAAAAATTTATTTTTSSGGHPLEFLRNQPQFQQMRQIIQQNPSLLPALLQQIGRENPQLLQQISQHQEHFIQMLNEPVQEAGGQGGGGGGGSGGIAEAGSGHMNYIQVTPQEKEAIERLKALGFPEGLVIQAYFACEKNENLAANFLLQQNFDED

Columns and labels:
[1] = target: Flag-tagged NRF1 (1–296) (UniProt Q14494); test: co-IP; Flag-tagged NRF1 constructs expressed in wild-type (sgLuci) and DDI2 knock-out (sgDDI2) HEK293T; anti-FLAG M2 agarose, 2 h at 4°C; lysis buffer 0.2% NP-40, 20 mM Tris-HCl pH 7.4, 150 mM NaCl; Rad23A and Rad23B seen by Western blot
[2] = target: flag-tagged DDI2 proteolytically inactive (D252A) (human) (UniProt Q5TDH0); test: co-IP; flag-tagged DDI2 wild-type or D252A expressed in DDI2-deficient HEK293T; anti-FLAG M2 agarose, 2 h at 4°C; lysis buffer 0.2% NP-40, 20 mM Tris-HCl pH 7.4, 150 mM NaCl; Rad23B seen by Western blot
[3] = target: flag-tagged wild-type DDI2 (human) (UniProt Q5TDH0); test: as above

binding [1]	binding [2]	binding [3]	Substance
binds			Rad23A (from UniProt P54725 1-363)
binds	binds	binds	Rad23B (from UniProt P54727 1-409)
